These are yes or no findings as the source states them, for the method shown. For some of these results: In cells and extracts the contact can be indirect. Some results given as binding are weak or reduced against the parent protein; the word gives no strength.

Sequences of proteins named here, by UniProt entry; tags and fusion partners are left off. A change or cut given only in a name is not applied to a line headed by its entry. A line that says so, or that is headed by a name, gives the form on record, which may keep a tag or linker. Residues count along the entry.
UniProt P03372: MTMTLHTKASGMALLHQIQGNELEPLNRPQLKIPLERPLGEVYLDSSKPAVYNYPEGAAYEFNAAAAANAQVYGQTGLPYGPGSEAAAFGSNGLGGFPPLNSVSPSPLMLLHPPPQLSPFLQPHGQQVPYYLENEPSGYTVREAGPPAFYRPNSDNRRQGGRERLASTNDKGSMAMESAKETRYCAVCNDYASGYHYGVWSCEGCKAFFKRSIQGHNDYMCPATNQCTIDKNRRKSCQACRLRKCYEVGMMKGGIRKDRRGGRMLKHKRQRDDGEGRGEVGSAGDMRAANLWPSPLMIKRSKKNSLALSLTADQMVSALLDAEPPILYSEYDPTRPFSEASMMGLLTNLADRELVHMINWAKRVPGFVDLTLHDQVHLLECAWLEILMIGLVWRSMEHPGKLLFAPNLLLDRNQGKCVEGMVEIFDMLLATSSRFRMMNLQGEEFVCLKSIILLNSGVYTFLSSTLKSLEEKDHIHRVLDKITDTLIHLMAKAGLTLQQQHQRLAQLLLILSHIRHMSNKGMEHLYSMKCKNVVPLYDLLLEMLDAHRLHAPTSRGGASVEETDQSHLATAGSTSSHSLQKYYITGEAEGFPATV
GST-ERα-C (aa 251-595): residues 251-595 of P03372
GST-GR-DBD (aa 435-510) (P06536, residues 435-510): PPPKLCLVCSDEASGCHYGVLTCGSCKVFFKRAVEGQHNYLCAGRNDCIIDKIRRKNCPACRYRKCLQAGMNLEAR
GST-GR-DBD (R488Q) (P06536, form named): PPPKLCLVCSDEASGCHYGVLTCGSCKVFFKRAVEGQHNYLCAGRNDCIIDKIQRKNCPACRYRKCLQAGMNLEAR
UniProt P04150: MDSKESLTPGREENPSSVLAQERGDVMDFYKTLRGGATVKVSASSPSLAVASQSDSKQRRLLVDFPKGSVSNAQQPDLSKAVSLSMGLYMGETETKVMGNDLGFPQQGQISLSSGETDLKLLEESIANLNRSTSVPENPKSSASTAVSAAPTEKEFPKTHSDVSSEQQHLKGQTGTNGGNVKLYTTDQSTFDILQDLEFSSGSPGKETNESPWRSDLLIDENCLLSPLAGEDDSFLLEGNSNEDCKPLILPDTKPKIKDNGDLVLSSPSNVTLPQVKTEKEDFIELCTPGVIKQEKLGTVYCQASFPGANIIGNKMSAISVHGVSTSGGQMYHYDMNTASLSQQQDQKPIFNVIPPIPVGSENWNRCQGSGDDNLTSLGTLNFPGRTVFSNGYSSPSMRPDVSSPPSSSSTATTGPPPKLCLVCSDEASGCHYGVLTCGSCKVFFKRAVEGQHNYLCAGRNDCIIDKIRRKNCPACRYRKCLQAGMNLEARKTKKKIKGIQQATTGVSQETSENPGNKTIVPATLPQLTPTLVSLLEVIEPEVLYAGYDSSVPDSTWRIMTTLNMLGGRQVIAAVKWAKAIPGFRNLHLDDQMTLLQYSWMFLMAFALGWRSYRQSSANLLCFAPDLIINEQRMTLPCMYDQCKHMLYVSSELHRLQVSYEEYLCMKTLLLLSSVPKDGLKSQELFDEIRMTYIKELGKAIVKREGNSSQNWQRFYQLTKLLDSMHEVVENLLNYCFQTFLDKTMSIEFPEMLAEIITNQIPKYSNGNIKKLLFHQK

Our source for the binding values is paper PMC3745347, “Interaction of Glucocorticoid Receptor (GR) with Estrogen Receptor (ER) α and Activator Protein 1 (AP1) in Dexamethasone-mediated Interference of ERα Activity*” (The Journal of Biological Chemistry, 2013).

In assay [1] the target is GST-ERα-C (aa 251-595) (human) (UniProt P03372). Description: pull-down; GST-ERα proteins on glutathione beads incubated with baculovirus-expressed, partially purified human GR; 50 mM Tris pH 8.0, 5 mM EDTA, 150 mM NaCl, 0.5% Nonidet P-40, 1 h at 4 °C; washes with up to 500 mM NaCl; blot for GR; both purified.
For assay [2], the target named is estrogen receptor α (ERα), endogenous in MCF-7 cells (human (endogenous in MCF-7)) (UniProt P03372). Description: co-IP; whole cell extracts of MCF-7 cells treated with VEH, E2 (10 nM), Dex (100 nM) or E2+Dex for 1 h; endogenous ERα immunoprecipitated with anti-ERα (HC-20), blot for GR; lysis buffer 50 mM Tris-HCl pH 7.5, 5 mM EDTA, 150 mM NaCl, 0.5% Nonidet P-40, 5% glycerol.

Assay [3] concerns the target GST-GR-DBD (R488Q) (UniProt P06536). Description: pull-down; GST-GR proteins immobilised on glutathione beads incubated with in vitro translated ERα (TNT system); washed as in the forward pull-down; blot with anti-ERα (HC-20); only the target purified.
Assay [4] concerns the target GST-GR-DBD (aa 435-510) (UniProt P06536). Described as above.

On to “baculovirus expressed full-length human GR (from UniProt P04150 1-777) (receptor)”, for which the binding result in assay [1] was “binds weakly”.
On to “glucocorticoid receptor (GR), endogenous in MCF-7 cells (from UniProt P04150 1-777)”, for which the binding entry in assay [2] is reported as “binds”.
For “in vitro translated full-length human ERα (from UniProt P03372 1-595) (receptor)”, the binding entry is given as “no binding” in assay [3] and “binds” in assay [4].
